# Laboratory results as given in PubChem BioAssay AID2685 (National Center for Advancing Translational Sciences (NCATS), 2010).
# The other results are listed elsewhere or left out. Further columns of the screen follow, without active or inactive calls. The list favours compounds with an active or inconclusive main result. The note in brackets gives the kind of curve behind each potency; many fits are weak.
# Experiment: qHTS Assay for Lipid Storage Modulators in Drosophila S3 Cells;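 as to cell number change: cells counted by Cell Tracker Red CMTPX staining in the red channel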
# Conditions: BODIPY lipid droplet fluorescence, 18-24 h; for cell number change: measured here: cell count max response, cells fed with added oleic acid
# Summary of the method: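 Laser-scanning cytometry quantifies lipid droplet accumulation (500–530 nm total intensity; droplet/cell object ratio) in oleic acid-fed (400 uM added) Drosophila S3 cells treated with a concentration series. 20 uM Triacsin C defined 100% inhibition.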
# [1] = measured here: cell number channel AC50, cells fed with added oleic acid
# [2] = measured here: lipid fluorescence (Fed channel) AC50, cells fed with added oleic acid
SMILES,cell number change [%],AC50 [1],AC50 [2]
CCC(=O)Nc1ccc(NC(=S)Nc2ccccc2)cc1,-17.8,"5.8 µM [rising, single point]","6.51 µM [rising, single point]"
Cc1cccc(C(=O)NC2CCN(C(=O)Nc3ccccc3C)CC2)c1,-83.4,"7.31 µM [falling, partial curve]","0.146 µM [falling, full curve, poor fit]"
Cc1ccc(-n2c(-c3ccco3)nc3c(cnn3-c3ccccc3C)c2=O)cc1,2.81,–,"1.46 µM [rising, partial curve]"
NC(=O)c1ccccc1OCC(=O)NS(=O)(=O)c1ccccc1,–,"0.651 µM [falling, full curve, poor fit]",–
Cc1ccc2nc(NCCO)nc(-c3ccccc3)c2c1,37.4,"8.2 µM [rising, partial curve]","11.6 µM [rising, partial curve]"
COCCn1c(N)c(Sc2ccc([N+](=O)[O-])cc2)c(=O)[nH]c1=O,16.4,–,–
COc1ccc(CNC(=O)c2ccc3ccccc3n2)cc1,13.2,–,"9.2 µM [rising, partial curve]"
COCCN(C(=O)c1snc(C(N)=O)c1N)C(C(=O)NC1CCCCC1)c1cc(OC)c(OC)c(OC)c1 (centres undefined),12.9,–,"6.51 µM [falling, single point]"
COc1cccc(CNc2ccc(S(N)(=O)=O)cc2)c1OCc1ccccc1F,26,–,"16.4 µM [rising, single point]"
O=C1CC(C(=O)Nc2ccccc2)N=C(N2CCCCC2)N1 (centres undefined),–,–,"5.8 µM [falling, partial curve]"
Cc1cc(Cl)ccc1C1=CC(=O)C[C@H](c2ccc(F)cc2)C1,14.3,–,"0.731 µM [rising, full curve]"
COc1ccc(C(=O)NCCCN=C2NS(=O)(=O)c3ccccc32)cc1,-27,–,"23.1 µM [falling, single point]"
O=C(CNC(=O)c1ccc(Br)o1)NCC1CCCCC1,14.7,–,"0.116 µM [rising, full curve, poor fit]"
CCCCN1C(=O)/C(=C2/Sc3ccc(Cl)cc3N2CC)SC1=S,14.6,–,"29.1 µM [rising, partial curve, poor fit]"
CC(=O)N1C(=O)NC2=C(C(=O)CCC2)C1c1cccc([N+](=O)[O-])c1 (centres undefined),-11.3,–,"16.4 µM [falling, partial curve]"
O=C(CSc1nnc(-c2cccnc2)o1)N1CCCCC1,11.7,–,–
CC(C)CN(CC(C)C)S(=O)(=O)N1CCC(C(=O)NC2CCCCCCC2)CC1,1.01,–,"2.31 µM [rising, single point]"
COc1ccc(CN2C(=O)C(CC(C)C)Nc3ncnc(N4CCN(c5ccccn5)CC4)c32)cc1 (centres undefined),-15.6,–,"23.1 µM [falling, single point]"
CCN(CC)C(=O)c1cccc(NC(=O)c2cc(-c3ccccn3)nc3ccccc23)c1,2.02,"3.66 µM [rising, partial curve, poor fit]","1.84 µM [rising, partial curve]"
Cc1cc(C(=O)CSc2nnc(-c3ccccc3F)o2)c(C)n1Cc1cccs1,55.7,"20.6 µM [rising, single point]",–

SMILES,cell number change [%],AC50 [1],AC50 [2]
CC1=NN(c2ccc(C)cc2C)C(=O)C1C(c1ccccc1)C1C(=O)N(c2ccc(C)cc2C)N=C1C (centres undefined),127,–,–
O=C(COc1ccc(-n2ccnc2)cc1)Nc1cccc(Cl)c1,52.5,"29.1 µM [rising, single point]","20.6 µM [rising, single point]"
CCN1CSC(=S)N(Cc2ccccc2)C1,-22.2,–,"5.17 µM [falling, full curve]"
C=CCc1cc(OC)ccc1OCCOCCN1CCc2ccccc2C1,-22.8,–,–
CCOC(=O)C1CCCN(C(=O)N2CCOCC2)C1 (centres undefined),–,–,"6.51 µM [rising, single point]"
CC1CN(C(=O)c2cccs2)CCN1C(=O)c1cccs1 (centres undefined),0.0701,–,–
CCOC(=O)c1c(CN2CCOCC2)n(-c2ccccc2)c2cc(Br)c(O)cc12,-7.14,–,"0.651 µM [falling, full curve]"
O=C(c1cnsn1)N1CCCC(Nc2ccc(F)c(F)c2)C1 (centres undefined),-10.1,–,–
CCC(C)[C@H](NC(=O)Nc1cccc(Cl)c1)C(=O)O (some centres undefined),-92.9,"29.1 µM [falling, single point]","29.1 µM [falling, partial curve]"
O=C(CC1C=Cc2ccccc2N1C(=O)c1ccccc1)c1ccccc1 (centres undefined),-10,–,"0.58 µM [falling, single point]"
COCC(=O)N(Cc1ccco1)c1nnc(C2CCOC2)s1 (centres undefined),-110,"6.51 µM [falling, full curve]","29.1 µM [falling, single point]"
CN(C)C(=O)CN(C)S(=O)(=O)c1ccc(Cl)cc1,-26.1,–,"0.00461 µM [rising, full curve, poor fit]"
CC(CC(=O)Nc1nc2ccccc2[nH]1)n1ccnc1 (centres undefined),-30.9,–,"3.66 µM [rising, partial curve, poor fit]"
O=C(CCn1c(=O)oc2ccccc21)NCc1ccco1,3.46,–,"16.4 µM [falling, partial curve, poor fit]"
Cc1nc(-c2ccc(S(=O)(=O)Nc3ccc(Br)cc3Cl)s2)cs1,–,–,"18.4 µM [rising, single point]"
CC(C)N(CCCNC(=O)c1nn(C)c2c1CS(=O)(=O)c1ccccc1-2)Cc1ccccc1,–,–,"29.1 µM [rising, partial curve, poor fit]"
CC(C)C(C(=O)O)N1C(=O)/C(=C/C=C/c2ccco2)SC1=S (centres undefined),-22.7,–,–
COc1cccc(-n2c(CCn3nc(C)c([N+](=O)[O-])c3C)n[nH]c2=S)c1,2.97,–,"6.51 µM [falling, single point]"
CCOc1ccccc1N(CC(=O)Nc1ccccc1C(=O)O)S(C)(=O)=O,-26,"0.13 µM [falling, full curve, poor fit]","0.731 µM [falling, full curve]"

# No new results follow: an excerpt of the list.
SMILES,cell number change [%],AC50 [1],AC50 [2]
CCOC(=O)c1c(CN2CCOCC2)n(-c2ccccc2)c2cc(Br)c(O)cc12,-7.14,–,"0.651 µM [falling, full curve]"
O=C(c1cnsn1)N1CCCC(Nc2ccc(F)c(F)c2)C1 (centres undefined),-10.1,–,–
